Laboratory results: the supplement of paper PMC4807443
Structures can show the parent of a compound that is named as a salt. The list shows a part of the results. The numbers are fractions of the control, whatever unit the source prints. Most values lie at the level of the controls, where differences are scatter.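 A lentiviral reporter stably expressed in MIN6 mouse insulinoma beta cells uses Pdx1 and Ins1 promoters to drive separate nucleus-targeted fluorescent proteins; automated imaging with Hoechst nuclear stain counted cells. Possible hits were drugs shifting Ins1 promoter signal more than two median absolute deviations from DMSO controls, with Pdx1 activity roughly normal.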

These compounds were tested on MIN6 (assay: % Pdx1+ Ins1+ (double-positive, mature) cells relative to DMSO control (fold of DMSO control); higher = more mature Ins1 promoter-active cells). Conditions: 8.5 µM; 48 h; glucose 5 mM.

SMILES	% Pdx1+ Ins1+
CCC[C@@H]1C[C@@H](C(=O)N[C@@H]([C@H]2O[C@H](SC)[C@H](O)[C@@H](O)[C@H]2O)[C@@H](C)O)N(C)C1 [Lincomycin hydrochloride]	1.12
CN1CCCN=C1/C=C/c1cccs1 [Pyrantel tartrate]	1.13
OC(CCN1CCCCC1)(c1ccccc1)c1ccccc1 [Pridinol methanesulfonate salt]	0.842
CCN(CC)CCNC(=O)c1cc(Br)c(N)cc1OC [Bromopride]	0.871
CC(C)NNC(=O)c1ccncc1 [Iproniazide phosphate]	1.07
CN1CCN2c3ccccc3Cc3ccccc3C2C1 (configuration not stated) [Mianserine hydrochloride]	1.03
N[C@@H](Cc1ccc(O)c(O)c1)C(=O)O [Levodopa]	1.13
O=C(O)CCC(=O)c1ccc(-c2ccccc2)cc1 [Fenbufen]	0.992
C[N+](C)(C)CCOC(N)=O [Carbachol]	0.8
CC(C)(C)NC[C@H](O)COc1cccc2c1CCCC2=O [(-) -Levobunolol hydrochloride]	0.972
Nc1ncn(C2OC(CO)C(O)C2O)c(=O)n1 (configuration not stated) [Azacytidine-5]	0.959
O=C1c2c(O)ccc(O)c2C(=O)c2c(NCCNCCO)ccc(NCCNCCO)c21 [Mitoxantrone dihydrochloride]	0.0706
CCOC(=O)C1=C(C)NC(C)=C(C(=O)OC)C1c1cccc(Cl)c1Cl (configuration not stated) [Felodipine]	0.746
C[C@H](CCC(=O)O)[C@H]1CC[C@H]2[C@@H]3C(=O)C[C@@H]4CC(=O)CC[C@]4(C)[C@H]3CC(=O)[C@]12C [Dehydrocholic acid]	1.08
C[N+](C)(CCOc1ccccc1)Cc1ccccc1.O=C([O-])c1cc2ccccc2cc1O [Bephenium hydroxynaphthoate]	0.92
CC(NCCc1ccc(O)cc1)C(O)c1ccc(O)cc1 (configuration not stated) [Ritodrine hydrochloride]	0.871
CCC1(C)CC(=O)NC1=O (configuration not stated) [Ethosuximide]	0.969
CCCNC(C)(C)COC(=O)c1ccccc1 [Meprylcaine hydrochloride]	1.03
CC(=O)Oc1ccc(C(c2ccc(OC(C)=O)cc2)c2ccccn2)cc1 [Bisacodyl]	0.964
CCC(C)(C)C(=O)O[C@H]1C[C@@H](C)C=C2C=C[C@H](C)[C@H](CC[C@@H]3C[C@@H](O)CC(=O)O3)[C@H]21 [Simvastatin]	1.17
O=C1O[C@H]([C@@H](O)CO)C(O)=C1O [Ascorbic acid]	1.16
O=C(O)c1ccccc1Nc1cccc(C(F)(F)F)c1 [Flufenamic acid]	1.08
CC[N+](C)(CC)CCC[n+]1c(-c2ccccc2)c2cc(N)ccc2c2ccc(N)cc21 [Propidium iodide]	0.921
CCC(=O)O[C@]1(C(=O)SCF)[C@H](C)C[C@H]2[C@@H]3C[C@H](F)C4=CC(=O)C=C[C@]4(C)[C@@]3(F)[C@@H](O)C[C@@]21C [Fluticasone propionate]	0.955
C[N+]1(C)CCCC1C(=O)O (configuration not stated) [Stachydrine hydrochloride]	0.999
Nc1ccc(/N=N/c2ccccc2)c(N)n1 [Phenazopyridine hydrochloride]	0.758

Some of the entries so far, with each value named.
CN1CCN2c3ccccc3Cc3ccccc3C2C1 (configuration not stated) [Mianserine hydrochloride]
  % Pdx1+ Ins1+: 1.03
N[C@@H](Cc1ccc(O)c(O)c1)C(=O)O [Levodopa]
  % Pdx1+ Ins1+: 1.13

More compounds:

SMILES	% Pdx1+ Ins1+
CC1=CC(=O)C2=C(C)CC[C@@H]3[C@H](OC(=O)[C@H]3C)[C@@H]12 [Leucomisine]	0.98
CN(C)CCOC(=O)C(c1ccccc1)C1(O)CCCC1 (configuration not stated) [Cyclopentolate hydrochloride]	0.973
OCCN1CCN(CC/C=C2/c3ccccc3Sc3ccc(Cl)cc32)CC1 [Zuclopenthixol hydrochloride]	0.876
CCN(CC)C(C)CN1c2ccccc2Sc2ccccc21 (configuration not stated) [Ethopropazine hydrochloride]	1.08
CCCNC(=O)NS(=O)(=O)c1ccc(Cl)cc1 [Chlorpropamide]	0.975
Clc1cccc(Cl)c1NC1=NCCN1 [Clonidine hydrochloride]	0.765
N=C(N)NCCCCNC(=N)N [Arcaine sulfate]	0.962
Nc1nc2c(ncn2COC(CO)CO)c(=O)[nH]1 [Ganciclovir]	0.946
CC=CC(=O)N(CC)c1ccccc1C [Crotamiton]	0.979
CNCCc1ccccn1 [Betahistine mesylate]	0.908
NCCCCCC(=O)O [Aminocaproic acid]	0.967
CN(C)C(=N)NC(=N)N [Metformin hydrochloride]	1.15
CCN(CC)C(=O)c1ccc(O)c(OC)c1 [Ethamivan]	1.01
C[C@H]1[C@H](C)CC[C@]2(C(=O)O)CC[C@]3(C)C(=CC[C@@H]4[C@@]5(C)CC[C@H](O)C(C)(C)[C@@H]5CC[C@]43C)[C@H]12 [Ursolic acid]	1.02
O=C(c1ccc(F)cc1)C1CCN(CCn2c(=O)[nH]c3ccccc3c2=O)CC1 [Ketanserin tartrate hydrate]	1.17
Cc1cc2nc3c(=O)[nH]c(=O)nc-3n(C[C@H](O)[C@H](O)[C@H](O)CO)c2cc1C [Riboflavine]	1.07
O=C1NCC2(CCN(CCc3ccccc3)CC2)O1 [Fenspiride hydrochloride]	0.909
CN(C)CCOC(c1ccccc1)c1ccccc1.Cn1c(=O)c2[nH]c(Cl)nc2n(C)c1=O [Dimenhydrinate]	1.1
Nc1ncnc2c1ncn2[C@@H]1O[C@H](CO)[C@@H](O)[C@@H]1O [Vidarabine]	0.827
CCC1(c2ccccc2)C(=O)NCNC1=O [Primidone]	0.924
CN(C)CCC(c1ccc(Br)cc1)c1ccccn1 (configuration not stated) [Brompheniramine maleate]	0.988
NC(Cn1ccc(=O)c(O)c1)C(=O)O (configuration not stated) [Mimosine]	0.998
CN(CCCCCCCCCCN(C)C(=O)Oc1cccc([N+](C)(C)C)c1)C(=O)Oc1cccc([N+](C)(C)C)c1 [Demecarium bromide]	0.987
CC(=O)N(CC(O)CO)c1c(I)c(C(=O)NCC(O)CO)c(I)c(C(=O)NCC(O)CO)c1I (configuration not stated) [Iohexol]	0.969
COC(=O)Nc1nc2cc(Sc3ccccc3)ccc2[nH]1 [Fenbendazole]	1.05
CN1CCN(CC(=O)N2c3ccccc3C(=O)Nc3cccnc32)CC1 [Pirenzepine dihydrochloride]	1.05

Structural class, the entries above containing four or more nitrogen atoms (twelve)
SMILES	% Pdx1+ Ins1+
Nc1ncn(C2OC(CO)C(O)C2O)c(=O)n1 (configuration not stated) [Azacytidine-5]	0.959
O=C1c2c(O)ccc(O)c2C(=O)c2c(NCCNCCO)ccc(NCCNCCO)c21 [Mitoxantrone dihydrochloride]	0.0706
CC[N+](C)(CC)CCC[n+]1c(-c2ccccc2)c2cc(N)ccc2c2ccc(N)cc21 [Propidium iodide]	0.921
Nc1ccc(/N=N/c2ccccc2)c(N)n1 [Phenazopyridine hydrochloride]	0.758
N=C(N)NCCCCNC(=N)N [Arcaine sulfate]	0.962
Nc1nc2c(ncn2COC(CO)CO)c(=O)[nH]1 [Ganciclovir]	0.946
CN(C)C(=N)NC(=N)N [Metformin hydrochloride]	1.15
Cc1cc2nc3c(=O)[nH]c(=O)nc-3n(C[C@H](O)[C@H](O)[C@H](O)CO)c2cc1C [Riboflavine]	1.07
CN(C)CCOC(c1ccccc1)c1ccccc1.Cn1c(=O)c2[nH]c(Cl)nc2n(C)c1=O [Dimenhydrinate]	1.1
Nc1ncnc2c1ncn2[C@@H]1O[C@H](CO)[C@@H](O)[C@@H]1O [Vidarabine]	0.827
CN(CCCCCCCCCCN(C)C(=O)Oc1cccc([N+](C)(C)C)c1)C(=O)Oc1cccc([N+](C)(C)C)c1 [Demecarium bromide]	0.987
CN1CCN(CC(=O)N2c3ccccc3C(=O)Nc3cccnc32)CC1 [Pirenzepine dihydrochloride]	1.05
